# According to patent US20140227293A1:
# The chains behind the UniProt entries cited, without tags or fusion partners. Where a name states a change or a piece, a line headed by the entry shows the natural chain unless it says otherwise. A line that says so, or that is headed by a name, gives the form on record, which may keep a tag or linker.
# endogenous SPIN90 of PAE cells (A0A8W4FEM2, form named): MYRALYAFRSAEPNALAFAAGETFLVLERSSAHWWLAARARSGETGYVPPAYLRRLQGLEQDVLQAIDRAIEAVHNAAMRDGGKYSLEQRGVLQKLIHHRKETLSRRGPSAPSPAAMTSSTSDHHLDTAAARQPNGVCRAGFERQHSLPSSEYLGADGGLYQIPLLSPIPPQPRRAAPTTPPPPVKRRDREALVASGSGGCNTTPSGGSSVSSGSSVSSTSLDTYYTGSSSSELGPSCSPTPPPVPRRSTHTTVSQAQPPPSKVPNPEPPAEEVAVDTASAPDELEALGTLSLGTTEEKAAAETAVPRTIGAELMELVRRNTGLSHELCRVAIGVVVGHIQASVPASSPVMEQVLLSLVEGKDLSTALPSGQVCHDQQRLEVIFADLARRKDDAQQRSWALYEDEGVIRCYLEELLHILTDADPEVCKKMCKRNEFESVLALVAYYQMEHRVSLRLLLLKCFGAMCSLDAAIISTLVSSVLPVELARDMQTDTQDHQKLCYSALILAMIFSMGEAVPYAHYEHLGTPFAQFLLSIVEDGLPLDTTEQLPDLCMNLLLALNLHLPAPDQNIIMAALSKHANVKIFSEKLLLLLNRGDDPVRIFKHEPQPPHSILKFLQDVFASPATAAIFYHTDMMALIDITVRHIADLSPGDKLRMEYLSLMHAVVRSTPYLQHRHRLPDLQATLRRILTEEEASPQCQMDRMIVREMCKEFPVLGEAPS
# Results are given in words; binding and its absence hold for the method and conditions named. In cells and extracts the contact can be indirect. Some results given as binding are weak or reduced against the parent protein; the word gives no strength.
# Legend:
# [1] = molecular target: T1, immunoglobulin containing and proline rich receptor-1 (IGPR-1), human, full length, ectopically expressed in PAE cells (human) (UniProt Q96BF3); assay: GST-SH3 pull-down from lysates of PAE cells expressing IGPR-1, anti-IGPR-1 immunoblot
# T1 sequence (chain, N-glycosylated (apparent 55 kDa, 31 kDa after PNGase F)): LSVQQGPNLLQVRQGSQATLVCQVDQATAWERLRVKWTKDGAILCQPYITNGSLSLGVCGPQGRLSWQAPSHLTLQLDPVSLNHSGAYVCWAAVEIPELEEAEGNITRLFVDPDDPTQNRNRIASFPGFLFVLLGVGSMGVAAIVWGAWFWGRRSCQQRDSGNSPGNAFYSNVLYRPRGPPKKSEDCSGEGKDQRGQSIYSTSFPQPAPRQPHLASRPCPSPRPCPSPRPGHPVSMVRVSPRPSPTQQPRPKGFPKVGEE
# [2] = molecular target: T1, immunoglobulin containing and proline rich receptor-1 (IGPR-1), human, full length, ectopically expressed in PAE cells (human); assay: figure legend (FIG. 6D schematic; FIG. 6E GST-SH3 pull-down)
# [3] = molecular target: T1, immunoglobulin containing and proline rich receptor-1 (IGPR-1), human, full length, ectopically expressed in PAE cells (human); assay: concluding sentence of Example 7, referring to the SH3 array, pull-down and co-immunoprecipitation
# [4] = molecular target: T1, immunoglobulin containing and proline rich receptor-1 (IGPR-1), human, full length, ectopically expressed in PAE cells (human); assay: co-immunoprecipitation from PAE cells expressing IGPR-1 (anti-IGPR-1 IP, anti-SPIN90 blot)
substance,measurement,setting,value
GST recombinant SH3 domain of CACNB2 (from UniProt P54288 86-155),binding,[1],binds
same,binding,[2],binds
GST recombinant SH3 domain of SPIN90 (from UniProt Q9NZQ3 1-58),binding,[1],binds
same,binding,[3],binds
same,binding,[2],binds
endogenous SPIN90 of PAE cells (from UniProt A0A8W4FEM2 1-720),binding,[4],binds
